Results deposited as PubChem BioAssay AID493246 (Drosophila RNAi Screening Center, 2011).

- Purpose: 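Identify essential fly genes by loss of cell viability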 (primary screen)
- System: Drosophila Kc and S2R+ cells
- Knock-down reagent: long dsRNA against Drosophila genes
- Read-out: 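Raw, unnormalised count of remaining cells in each well; per-plate z-scores of cell number underlie the calls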
- Reading the numbers: Kc cell number and S2R+ cell number: higher = more cells remaining
- Rule for the call: 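Counted as a hit if cell number falls by a z-score of at least 3 within its plate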
The deposit covers about 21,000 reagents; shown is an unselected part of those that have a named target and a result. In the full data, 429 (2%) are marked active. 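Values are raw and not normalised between plates; calls rest on per-plate z-scores that were not deposited.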 A plus sign joins genes that one reagent is predicted to hit. Not stated in the record: the amount of reagent, the time to read-out.

gene	amplicon	Kc cell number, rep 1	Kc cell number, rep 2	S2R+ cell number, rep 1	S2R+ cell number, rep 2	call
Usp5	DRSC08244	1.63e6	1.51e6	1.10e6	1.34e6	inactive
Cenp-C	DRSC14371	1.33e6	1.38e6	8.29e5	9.43e5	active
Mal-A2	DRSC07460	1.53e6	1.63e6	1.28e6	1.45e6	inactive
CG3347	DRSC00597	1.74e6	1.75e6	1.10e6	1.29e6	inactive
CG4390	DRSC15572	1.64e6	1.66e6	1.27e6	1.29e6	inactive
CG1582	DRSC19732	5.41e5		8.51e5		inactive
CG31633	DRSC02275	1.57e6	1.51e6	1.11e6	1.24e6	inactive
aux	DRSC12161	1.64e6	1.59e6	1.44e6	1.40e6	inactive
Nup58	DRSC16235	1.31e6	1.27e6	9.79e5	1.09e6	inactive
tex	DRSC16517	1.72e6	1.82e6	1.39e6	1.58e6	inactive
CG2577	DRSC19863	1.61e6	1.54e6	9.78e5	1.12e6	inactive
CG11983	DRSC14458	1.73e6	1.73e6	1.35e6	1.51e6	inactive
Pex19	DRSC02839	1.37e6	1.48e6	1.28e6	1.34e6	inactive
CG7168	DRSC16208	1.60e6	1.59e6	1.33e6	1.34e6	inactive
Hydr2	DRSC00607	1.32e6	1.32e6	9.04e5	1.05e6	inactive
r2d2	DRSC03014	1.55e6	1.56e6	1.09e6	1.21e6	inactive
unc-5	DRSC05545	1.33e6	1.37e6	1.03e6	1.19e6	inactive
unc-5	DRSC07711	1.59e6	1.58e6	1.22e6	1.45e6	inactive
unc-5	DRSC07712	1.58e6	1.59e6	1.21e6	1.37e6	inactive
Muc4B	DRSC18062	1.55e6	1.50e6	9.09e5	9.74e5	inactive
Muc4B	DRSC18063	1.53e6	1.58e6	9.26e5	1.11e6	inactive
RpL35A	DRSC12302	9.85e5	1.10e6	7.17e5	8.16e5	active
TTLL1B	DRSC08594	1.39e6	1.43e6	1.12e6	1.19e6	inactive
oc	DRSC18808	1.63e6	1.59e6	1.07e6	1.23e6	inactive
EMC1	DRSC15455	1.65e6	1.68e6	1.23e6	1.29e6	inactive
Obp57c	DRSC06384	1.69e6	1.65e6	1.24e6	1.39e6	inactive
CG34054	DRSC05277	1.46e6	1.44e6	9.99e5	1.13e6	inactive
CG6937	DRSC16140	1.69e6	1.61e6	8.25e5	9.16e5	inactive
CG30466	DRSC05556	1.43e6	1.38e6	9.97e5	1.14e6	inactive
Or22b	DRSC00765	1.58e6	1.63e6	1.16e6	1.29e6	inactive
crc	DRSC03513	1.55e6	1.66e6	1.36e6	5.48e5	inactive
CG42713	DRSC01050	1.63e6	1.68e6	1.09e6	1.23e6	inactive
MTPAP	DRSC18585	1.44e6	1.47e6	9.96e5	1.10e6	inactive
CG30440	DRSC04775	1.53e6	1.69e6	9.58e5	1.14e6	inactive
CG30440	DRSC04845	1.61e6	1.65e6	1.37e6	1.40e6	inactive
CG30440	DRSC04855	1.57e6	1.72e6	1.33e6	1.35e6	inactive
CG2186	DRSC19838	5.88e5		8.17e5		inactive
MetRS-m	DRSC16443	1.51e6	1.56e6	1.15e6	1.24e6	inactive
MetRS-m	DRSC16515	1.12e6	1.04e6	8.57e5	9.23e5	inactive
ort	DRSC16240	1.41e6	1.38e6	1.08e6	1.17e6	inactive
RpL36A	DRSC03055	1.23e6	1.32e6	7.35e5	8.39e5	active
CG11714	DRSC09857	1.32e6	1.39e6	1.13e6	1.06e6	inactive
Pvr	DRSC03080	4.61e5	5.31e5	5.39e5	6.21e5	active
mrt	DRSC15484	1.51e6	1.59e6	1.05e6	1.16e6	inactive
CG42703	DRSC03973	6.99e5		9.91e5		inactive
Obp58d	DRSC04162	1.52e6	1.60e6	1.39e6	1.39e6	inactive
Dcp-1	DRSC04609	1.50e6	1.53e6	1.22e6	1.32e6	inactive
Tim17a2	DRSC12252	1.64e6	1.81e6	1.24e6	1.37e6	inactive
CG1703	DRSC19764	5.41e5		8.23e5		inactive
CG17824 (retired record)	DRSC10288	1.36e6	1.54e6	1.39e6	1.53e6	inactive
CG15701	DRSC06572	1.62e6	1.75e6	1.26e6	1.43e6	inactive
x16	DRSC00960	1.70e6	1.71e6	1.15e6	1.34e6	inactive
x16	DRSC03638	1.43e6	1.44e6	6.60e5	6.56e5	inactive
CG10068	DRSC12508	1.63e6	1.63e6	1.31e6	1.41e6	inactive
aru	DRSC00802	1.49e6	1.54e6	1.00e6	1.23e6	inactive
CG34236	DRSC05435	1.47e6	1.47e6	9.67e5	1.16e6	inactive
Stam	DRSC03444	1.19e6	1.32e6	1.16e6	1.20e6	inactive
CG15048 (retired record)	DRSC19624	1.63e6	1.60e6	1.20e6	1.34e6	inactive
Spt7	DRSC19997	1.75e6	1.79e6	1.09e6	1.27e6	inactive
TwdlE	DRSC02392	1.50e6	1.58e6	1.20e6	1.37e6	inactive
hiw	DRSC20338	1.57e6	1.56e6	1.05e6	1.20e6	inactive
hiw	DRSC20339	1.57e6	1.61e6	1.12e6	1.25e6	inactive
Gal	DRSC03134	1.63e6	1.58e6	1.24e6	1.37e6	inactive
gce	DRSC19613	1.54e6	1.56e6	1.08e6	1.16e6	inactive
gce	DRSC19974	1.55e6	1.54e6	9.60e5	1.08e6	inactive
APC4	DRSC18360	6.67e5		7.92e5		inactive
Slob (retired record)	DRSC03436	1.28e6	1.33e6	6.27e5	9.53e5	inactive
Hers + amn	DRSC20306	1.50e6	1.54e6	1.06e6	1.17e6	inactive
Rbbp5	DRSC11778	1.75e6	1.82e6	1.27e6	1.39e6	inactive
Nse1	DRSC02147	1.17e6	1.34e6	5.15e5	5.18e5	inactive
CG42375 + CG9288	DRSC16468	1.85e6	1.65e6	1.42e6	1.49e6	inactive
St1	DRSC04504	1.34e6	1.40e6	1.14e6	1.39e6	inactive
Apc	DRSC14114	1.62e6	1.75e6	1.09e6	1.21e6	inactive
Tom40	DRSC18796	1.56e6	1.62e6	9.90e5	1.10e6	inactive
CG10062	DRSC05960	1.39e6	1.41e6	1.20e6	1.21e6	inactive

Entries listed so far whose gene name begins with H or h (4):
gene	amplicon	Kc cell number, rep 1	Kc cell number, rep 2	S2R+ cell number, rep 1	S2R+ cell number, rep 2	call
Hydr2	DRSC00607	1.32e6	1.32e6	9.04e5	1.05e6	inactive
hiw	DRSC20338	1.57e6	1.56e6	1.05e6	1.20e6	inactive
hiw	DRSC20339	1.57e6	1.61e6	1.12e6	1.25e6	inactive
Hers + amn	DRSC20306	1.50e6	1.54e6	1.06e6	1.17e6	inactive
